Values quoted from earlier work in US8741957B2, “Alpha-aminoamide derivatives useful in the treatment of cognitive disorders” (priority 2006, dated 2014).

Test system: experimental brain injury in the rat
Settings: preclinical testing; cited from earlier work

Compound: Nc1nc2ccc(OC(F)(F)F)cc2s1 [riluzole]
- cognition following experimental brain injury: improve cognition
